Results are given in words; binding and its absence hold for the method and conditions named. Some results given as binding are weak or reduced against the parent protein; the word gives no strength.

Chains of the proteins cited; added tags and fusions are not shown. Lines headed by an entry give the natural chain unless they say otherwise; changes in a name come on top. Residues count along the entry.
UniProt Q86Z14, residues 1-996: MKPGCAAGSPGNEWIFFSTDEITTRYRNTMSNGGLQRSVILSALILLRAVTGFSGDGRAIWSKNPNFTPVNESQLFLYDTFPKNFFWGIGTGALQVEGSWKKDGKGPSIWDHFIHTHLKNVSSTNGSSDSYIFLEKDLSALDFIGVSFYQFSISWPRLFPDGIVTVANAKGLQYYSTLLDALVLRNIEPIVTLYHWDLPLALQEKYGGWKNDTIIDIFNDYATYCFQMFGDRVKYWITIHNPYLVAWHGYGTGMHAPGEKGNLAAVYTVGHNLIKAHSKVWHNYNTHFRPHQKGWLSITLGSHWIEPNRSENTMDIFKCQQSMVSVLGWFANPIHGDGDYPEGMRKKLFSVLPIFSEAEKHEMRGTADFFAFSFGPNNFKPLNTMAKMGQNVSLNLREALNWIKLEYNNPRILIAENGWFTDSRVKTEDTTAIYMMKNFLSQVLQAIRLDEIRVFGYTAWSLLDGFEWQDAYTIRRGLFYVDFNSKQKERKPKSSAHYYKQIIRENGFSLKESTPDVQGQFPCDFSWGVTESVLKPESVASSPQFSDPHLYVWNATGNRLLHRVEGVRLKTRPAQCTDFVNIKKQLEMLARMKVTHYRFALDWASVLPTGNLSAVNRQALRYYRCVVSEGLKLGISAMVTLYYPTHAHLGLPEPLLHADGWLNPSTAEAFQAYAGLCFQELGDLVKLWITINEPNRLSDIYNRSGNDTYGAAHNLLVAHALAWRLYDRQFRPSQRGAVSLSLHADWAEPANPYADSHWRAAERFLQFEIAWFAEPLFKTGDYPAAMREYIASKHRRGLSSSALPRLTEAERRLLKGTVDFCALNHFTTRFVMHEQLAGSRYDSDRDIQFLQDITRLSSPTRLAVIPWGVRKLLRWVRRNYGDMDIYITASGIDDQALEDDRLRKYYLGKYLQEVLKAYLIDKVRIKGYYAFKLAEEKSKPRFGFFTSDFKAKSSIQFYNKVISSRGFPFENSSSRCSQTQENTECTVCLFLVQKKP
UniProt Q9NSA1: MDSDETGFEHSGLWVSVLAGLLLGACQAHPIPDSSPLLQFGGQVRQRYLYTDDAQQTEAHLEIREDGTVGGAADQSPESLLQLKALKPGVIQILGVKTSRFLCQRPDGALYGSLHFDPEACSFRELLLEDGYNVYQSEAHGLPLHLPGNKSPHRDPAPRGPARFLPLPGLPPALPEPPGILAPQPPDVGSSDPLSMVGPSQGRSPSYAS

For the assay, the target named is extracellular domain of human receptor β-Klotho with a C-terminal Poly-His tag (human) (UniProt Q86Z14). The assay can be described thus: SPR, Biacore-8K.
As to “FGF21 (170C/173C) mutant 1411 (from UniProt Q9NSA1 29-209) (ligand)”, the binding entry is recorded as “binds”. Take “FGF21 (170C/Ins-172A/173C) mutant 1412 (from UniProt Q9NSA1 29-209) (ligand)”: the binding result is given as “binds”. As to “FGF21 (170C/Ins-172G/173C) mutant 1409 (from UniProt Q9NSA1 29-209) (ligand)”, the binding result is recorded as “binds”. For the substance “FGF21 (170C/Ins-172S/173C) mutant 1413 (from UniProt Q9NSA1 29-209) (ligand)”, the binding entry is given as “binds”. On to “FGF21 (Del-P171) mutant 1408 (from UniProt Q9NSA1 29-209) (ligand)”, for which the binding entry is “binds”. The entry for “FGF21 (P171G) mutant 1407 (from UniProt Q9NSA1 29-209) (ligand)” is “binds”.

The values are drawn from US20240376168A1.
